Test results taken from patent publication US8802710B2, “Metronidazole esters for treating rosacea” (Galderma Research & Development, priority 2010, dated 2014).
Some of these results come from one statement about several compounds together.

Tested on: oedema induced by arachidonic acid (AA) on mouse ear
Assay: Model of acute inflammation on mouse ear: arachidonic acid-induced oedema
Assay type: in vivo
Conditions: dose of 1%, topical, 1 hour after application
Experimental: The anti-inflammatory activities of the compound of formula (I) in racemic form, of the S enantiomer of the compound of formula (I), of metronidazole and of flurbiprofen were measured in an in vivo test performed on a mouse model. This model consists in inducing inflammation of the mouse ear with a single application of arachidonic acid (AA). Female Balb/c ByJlco mice are used. The oedema is induced by applying to the mouse's ear 20 μL of AA dissolved to 4% in a 1/1 THF/methanol mixture. The anti-inflammatory activities of the S enantiomer of the compound of formula (I), of the compound of formula (I) in racemic form, of metronidazole and of flurbiprofen were evaluated after topical application onto the inner face of the mouse's ear of 20 μL of a solution of the compound in a 1/1 THF/methanol mixture containing 4% AA.
Solutions containing 0.01%; 0.03%; 0.1%; 0.3%; 1% and 2% of the test compound are thus prepared. The percentages correspond to the weight of the test compound per volume of solution. The oedema is evaluated, 1 hour after application, by measuring the thickness of the ear using an Oditest® micrometer. The oedema induced by AA alone is evaluated, 1 hour after application, by measuring the thickness of the ear using an Oditest® micrometer. It is evaluated relative to a group comprising only the vehicle (1/1 THF/methanol). […]

Cc1ncc([N+](=O)[O-])n1CCOC(=O)C(C)c1ccc(-c2ccccc2)c(F)c1 (racemic) [2-(2-methyl-5-nitroimidazol-1-yl)ethyl 2-(2-fluorobiphenyl-4-yl)propionate]
inhibition of the oedema induced by AA alone: at least 50%
